The list shows a part of the results. Small differences around the control level are noise.
Compound: CN[C@@H]1C[C@H]2O[C@@](C)([C@@H]1OC)n1c3ccccc3c3c4c(c5c6ccccc6n2c5c31)C(=O)NC4 [staurosporine]
Assay: log2 fold change of tryptic peptide abundance, ligand vs vehicle (limited proteolysis) (log2 ratio); higher = more trypsin-susceptible (destabilized)
Conditions: ligand concentration: 20 uM; sample: mouse liver crude lysate; replicate design: treated separately

Sequences of proteins named here, by UniProt entry; tags and fusion partners are left off. A change or cut given only in a name is not applied to a line headed by its entry.
UniProt Q5HZH7: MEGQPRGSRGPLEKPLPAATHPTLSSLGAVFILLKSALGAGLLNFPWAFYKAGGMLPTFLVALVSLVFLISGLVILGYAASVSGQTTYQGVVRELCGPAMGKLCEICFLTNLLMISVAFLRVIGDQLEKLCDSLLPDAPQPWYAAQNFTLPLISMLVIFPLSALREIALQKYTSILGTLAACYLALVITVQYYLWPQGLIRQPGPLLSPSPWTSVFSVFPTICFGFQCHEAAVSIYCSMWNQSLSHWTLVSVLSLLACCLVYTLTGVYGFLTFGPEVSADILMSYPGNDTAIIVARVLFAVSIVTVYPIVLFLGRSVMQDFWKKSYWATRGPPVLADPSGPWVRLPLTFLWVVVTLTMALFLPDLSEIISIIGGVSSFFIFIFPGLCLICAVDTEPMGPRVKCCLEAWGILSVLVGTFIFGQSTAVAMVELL
UniProt Q5H8C4: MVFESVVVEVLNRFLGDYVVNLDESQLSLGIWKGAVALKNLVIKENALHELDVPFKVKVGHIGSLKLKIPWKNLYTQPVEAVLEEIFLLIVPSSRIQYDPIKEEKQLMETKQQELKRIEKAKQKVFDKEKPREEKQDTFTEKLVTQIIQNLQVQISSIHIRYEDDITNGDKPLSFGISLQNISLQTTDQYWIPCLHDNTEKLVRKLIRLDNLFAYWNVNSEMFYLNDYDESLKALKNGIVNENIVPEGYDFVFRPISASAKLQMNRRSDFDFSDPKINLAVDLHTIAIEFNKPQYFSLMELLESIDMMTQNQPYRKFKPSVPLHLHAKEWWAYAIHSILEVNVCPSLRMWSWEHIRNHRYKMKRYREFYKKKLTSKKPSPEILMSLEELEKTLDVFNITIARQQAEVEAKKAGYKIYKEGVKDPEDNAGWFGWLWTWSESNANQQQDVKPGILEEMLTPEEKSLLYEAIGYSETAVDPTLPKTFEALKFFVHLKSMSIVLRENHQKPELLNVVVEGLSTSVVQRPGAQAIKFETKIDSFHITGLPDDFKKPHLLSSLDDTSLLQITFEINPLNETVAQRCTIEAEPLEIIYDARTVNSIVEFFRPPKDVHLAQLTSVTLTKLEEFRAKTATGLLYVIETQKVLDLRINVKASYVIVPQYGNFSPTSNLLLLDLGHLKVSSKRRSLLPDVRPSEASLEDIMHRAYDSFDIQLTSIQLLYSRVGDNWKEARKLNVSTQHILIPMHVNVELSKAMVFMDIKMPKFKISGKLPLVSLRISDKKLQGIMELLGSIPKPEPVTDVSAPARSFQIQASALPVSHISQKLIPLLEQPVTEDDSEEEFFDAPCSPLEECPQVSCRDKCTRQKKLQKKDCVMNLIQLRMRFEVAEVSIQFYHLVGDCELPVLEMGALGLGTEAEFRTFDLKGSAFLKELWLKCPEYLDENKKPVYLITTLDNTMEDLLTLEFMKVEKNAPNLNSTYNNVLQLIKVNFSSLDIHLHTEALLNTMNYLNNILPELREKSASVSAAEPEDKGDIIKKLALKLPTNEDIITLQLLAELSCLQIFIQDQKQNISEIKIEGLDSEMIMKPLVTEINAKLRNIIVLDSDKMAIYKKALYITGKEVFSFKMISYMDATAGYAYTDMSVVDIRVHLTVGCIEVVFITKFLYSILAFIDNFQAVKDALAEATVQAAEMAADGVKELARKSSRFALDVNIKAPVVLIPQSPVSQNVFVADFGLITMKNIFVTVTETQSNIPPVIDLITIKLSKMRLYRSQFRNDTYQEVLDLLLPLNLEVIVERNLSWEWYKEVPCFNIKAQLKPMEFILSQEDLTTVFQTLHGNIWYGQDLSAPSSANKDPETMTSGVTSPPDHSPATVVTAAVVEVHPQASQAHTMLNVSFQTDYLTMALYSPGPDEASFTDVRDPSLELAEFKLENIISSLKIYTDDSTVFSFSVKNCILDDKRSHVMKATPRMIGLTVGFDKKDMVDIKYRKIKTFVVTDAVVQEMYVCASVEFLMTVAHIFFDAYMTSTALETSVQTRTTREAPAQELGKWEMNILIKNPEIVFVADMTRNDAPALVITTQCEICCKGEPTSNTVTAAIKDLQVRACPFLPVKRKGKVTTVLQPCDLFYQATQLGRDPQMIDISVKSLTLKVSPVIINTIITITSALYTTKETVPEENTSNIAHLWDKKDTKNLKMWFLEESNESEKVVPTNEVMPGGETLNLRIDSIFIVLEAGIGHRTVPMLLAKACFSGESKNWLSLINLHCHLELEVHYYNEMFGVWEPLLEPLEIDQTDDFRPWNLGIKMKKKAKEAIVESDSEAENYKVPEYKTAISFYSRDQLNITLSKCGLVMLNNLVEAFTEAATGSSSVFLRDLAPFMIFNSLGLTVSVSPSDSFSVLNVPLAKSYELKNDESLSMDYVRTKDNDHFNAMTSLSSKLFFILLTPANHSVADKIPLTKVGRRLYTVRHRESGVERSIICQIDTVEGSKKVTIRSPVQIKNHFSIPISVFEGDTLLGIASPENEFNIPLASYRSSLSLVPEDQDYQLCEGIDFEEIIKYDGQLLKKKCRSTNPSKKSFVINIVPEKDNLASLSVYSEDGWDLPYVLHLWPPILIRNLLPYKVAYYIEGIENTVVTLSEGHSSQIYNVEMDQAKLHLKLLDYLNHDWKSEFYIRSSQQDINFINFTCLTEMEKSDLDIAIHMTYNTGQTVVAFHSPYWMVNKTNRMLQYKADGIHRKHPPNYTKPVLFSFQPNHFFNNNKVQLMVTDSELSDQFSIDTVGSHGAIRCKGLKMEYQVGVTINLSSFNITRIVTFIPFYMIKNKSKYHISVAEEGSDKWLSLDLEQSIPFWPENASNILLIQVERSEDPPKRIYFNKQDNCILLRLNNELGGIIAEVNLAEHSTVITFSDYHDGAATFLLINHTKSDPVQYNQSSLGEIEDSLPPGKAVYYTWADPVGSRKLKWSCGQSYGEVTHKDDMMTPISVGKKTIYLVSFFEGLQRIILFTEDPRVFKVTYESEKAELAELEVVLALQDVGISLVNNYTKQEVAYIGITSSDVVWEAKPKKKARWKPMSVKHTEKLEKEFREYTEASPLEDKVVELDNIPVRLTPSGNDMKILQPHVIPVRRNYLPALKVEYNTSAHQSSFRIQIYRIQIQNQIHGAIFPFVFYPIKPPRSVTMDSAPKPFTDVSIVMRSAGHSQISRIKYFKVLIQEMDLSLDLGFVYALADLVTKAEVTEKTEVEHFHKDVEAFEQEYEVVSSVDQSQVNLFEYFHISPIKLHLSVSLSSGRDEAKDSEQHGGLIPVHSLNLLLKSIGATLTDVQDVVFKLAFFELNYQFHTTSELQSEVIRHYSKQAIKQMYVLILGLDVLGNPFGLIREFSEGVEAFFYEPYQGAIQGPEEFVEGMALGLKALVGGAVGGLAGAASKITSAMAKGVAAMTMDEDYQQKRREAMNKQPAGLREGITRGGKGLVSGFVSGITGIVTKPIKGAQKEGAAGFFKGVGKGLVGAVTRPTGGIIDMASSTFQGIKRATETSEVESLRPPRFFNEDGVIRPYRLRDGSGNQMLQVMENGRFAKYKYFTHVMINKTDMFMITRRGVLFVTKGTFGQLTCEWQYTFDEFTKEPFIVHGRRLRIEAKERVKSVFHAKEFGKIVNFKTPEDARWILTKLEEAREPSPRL
UniProt Q5SUC9: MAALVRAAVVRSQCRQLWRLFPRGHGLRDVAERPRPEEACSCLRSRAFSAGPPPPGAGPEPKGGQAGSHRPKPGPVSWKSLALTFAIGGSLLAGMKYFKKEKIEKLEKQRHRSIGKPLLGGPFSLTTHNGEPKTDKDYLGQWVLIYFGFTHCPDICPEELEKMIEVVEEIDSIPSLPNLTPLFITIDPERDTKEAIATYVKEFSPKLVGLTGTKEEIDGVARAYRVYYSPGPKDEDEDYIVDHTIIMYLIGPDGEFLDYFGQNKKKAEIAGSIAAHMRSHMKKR
UniProt Q5DU57: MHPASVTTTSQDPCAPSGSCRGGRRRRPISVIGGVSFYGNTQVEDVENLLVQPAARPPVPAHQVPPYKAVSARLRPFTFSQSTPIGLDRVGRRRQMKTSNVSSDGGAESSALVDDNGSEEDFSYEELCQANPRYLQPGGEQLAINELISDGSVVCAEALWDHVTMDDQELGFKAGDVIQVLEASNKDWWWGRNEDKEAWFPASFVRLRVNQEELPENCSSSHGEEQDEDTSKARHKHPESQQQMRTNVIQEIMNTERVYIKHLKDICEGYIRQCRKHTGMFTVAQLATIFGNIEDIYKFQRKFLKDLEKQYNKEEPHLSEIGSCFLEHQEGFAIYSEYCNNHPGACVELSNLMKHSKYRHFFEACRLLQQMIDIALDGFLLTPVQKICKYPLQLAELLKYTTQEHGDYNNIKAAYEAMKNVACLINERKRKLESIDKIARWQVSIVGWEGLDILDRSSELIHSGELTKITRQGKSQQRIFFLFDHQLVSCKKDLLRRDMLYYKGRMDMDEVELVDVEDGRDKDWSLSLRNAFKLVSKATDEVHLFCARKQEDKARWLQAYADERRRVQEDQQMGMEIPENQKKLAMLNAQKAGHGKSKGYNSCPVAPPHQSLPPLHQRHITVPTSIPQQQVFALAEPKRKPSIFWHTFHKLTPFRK
UniProt Q60929: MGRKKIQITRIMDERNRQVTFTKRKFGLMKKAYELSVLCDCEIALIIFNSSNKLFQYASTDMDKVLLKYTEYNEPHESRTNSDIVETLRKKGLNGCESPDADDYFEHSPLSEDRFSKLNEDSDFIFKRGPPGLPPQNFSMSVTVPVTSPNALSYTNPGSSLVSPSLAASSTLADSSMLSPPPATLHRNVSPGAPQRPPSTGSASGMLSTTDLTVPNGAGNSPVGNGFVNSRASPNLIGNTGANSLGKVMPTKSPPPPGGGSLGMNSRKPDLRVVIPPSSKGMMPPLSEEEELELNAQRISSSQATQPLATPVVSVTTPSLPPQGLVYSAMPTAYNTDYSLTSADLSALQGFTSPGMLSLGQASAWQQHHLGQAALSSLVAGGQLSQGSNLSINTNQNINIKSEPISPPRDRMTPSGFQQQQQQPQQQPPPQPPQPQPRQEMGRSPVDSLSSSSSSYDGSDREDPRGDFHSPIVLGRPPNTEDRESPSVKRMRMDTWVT
UniProt Q5SZA1: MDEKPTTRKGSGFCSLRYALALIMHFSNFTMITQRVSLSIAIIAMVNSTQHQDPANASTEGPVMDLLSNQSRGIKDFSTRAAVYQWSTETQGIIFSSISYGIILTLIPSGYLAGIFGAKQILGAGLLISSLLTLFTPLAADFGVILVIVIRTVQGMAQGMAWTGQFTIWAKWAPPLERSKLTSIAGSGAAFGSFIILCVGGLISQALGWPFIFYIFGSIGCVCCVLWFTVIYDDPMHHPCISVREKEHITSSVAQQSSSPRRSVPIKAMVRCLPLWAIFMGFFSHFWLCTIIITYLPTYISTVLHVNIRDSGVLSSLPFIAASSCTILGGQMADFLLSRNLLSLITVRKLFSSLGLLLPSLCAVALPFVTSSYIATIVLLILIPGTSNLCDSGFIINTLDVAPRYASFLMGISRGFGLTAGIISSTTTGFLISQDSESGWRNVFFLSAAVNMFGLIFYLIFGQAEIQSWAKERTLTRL
UniProt Q60953: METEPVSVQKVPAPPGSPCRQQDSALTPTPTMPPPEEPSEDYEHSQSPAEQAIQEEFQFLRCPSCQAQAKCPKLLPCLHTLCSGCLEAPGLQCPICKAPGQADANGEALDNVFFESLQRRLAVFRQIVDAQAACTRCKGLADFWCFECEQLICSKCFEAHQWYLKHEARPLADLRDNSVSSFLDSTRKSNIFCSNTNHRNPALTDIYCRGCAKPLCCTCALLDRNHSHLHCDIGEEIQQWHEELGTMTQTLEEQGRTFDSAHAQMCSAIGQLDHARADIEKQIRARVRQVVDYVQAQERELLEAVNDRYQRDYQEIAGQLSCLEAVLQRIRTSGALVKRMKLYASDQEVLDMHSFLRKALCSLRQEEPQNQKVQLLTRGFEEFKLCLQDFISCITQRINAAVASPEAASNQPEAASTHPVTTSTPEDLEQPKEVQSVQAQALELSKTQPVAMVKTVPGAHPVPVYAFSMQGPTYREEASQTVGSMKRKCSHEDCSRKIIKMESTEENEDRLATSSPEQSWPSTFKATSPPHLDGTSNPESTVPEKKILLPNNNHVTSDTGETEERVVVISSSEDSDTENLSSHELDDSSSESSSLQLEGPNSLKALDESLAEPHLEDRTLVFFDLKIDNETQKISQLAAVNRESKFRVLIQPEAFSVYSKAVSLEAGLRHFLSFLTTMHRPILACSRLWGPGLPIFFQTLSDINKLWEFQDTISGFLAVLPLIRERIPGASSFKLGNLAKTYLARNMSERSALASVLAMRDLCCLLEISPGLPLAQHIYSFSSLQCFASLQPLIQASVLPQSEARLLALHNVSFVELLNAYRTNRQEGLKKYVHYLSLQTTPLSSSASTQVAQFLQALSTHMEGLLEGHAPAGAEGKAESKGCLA

Q: Which log2 fold change does the source give for “UniProt Q5HZH7 (peptide sequence: SVMQDFWKK, peptide start residue: 316)” here?
A: The log2 fold change was 0.00672.

Q: Which log2 fold change does the source give for “UniProt Q60952 (peptide sequence: LKNEELESERER, peptide start residue: 1382)” here?
A: The log2 fold change was -0.16.

Q: For “UniProt Q5EBP3 (peptide sequence: NLADSPQHR, peptide start residue: 218)”, which log2 fold change is on record?
A: Its log2 fold change is -0.106.

Q: “UniProt Q60710 (peptide sequence: KVLDIFR, peptide start residue: 95)” was tested. Which log2 fold change did it give?
A: Its log2 fold change is 0.143.

Q: For “UniProt Q5SDA5 (peptide sequence: EIIDRLK, peptide start residue: 759)”, which log2 fold change is on record?
A: The log2 fold change was 0.12.

Q: With “UniProt Q5F2E7 (peptide sequence: LSQVPMSALK, peptide start residue: 397)” as the target, how does the log2 fold change read?
A: The log2 fold change was 0.316.

Q: “UniProt Q5NBX1 (peptide sequence: ILMNGSAR, peptide start residue: 1111)” was tested. Which log2 fold change did it give?
A: The log2 fold change was 0.307.

Q: “UniProt Q60749 (peptide sequence: VLIPVKQYPKFNFVGK, peptide start residue: 160)” was tested. Which log2 fold change did it give?
A: The log2 fold change was 0.833.

Q: With “UniProt Q5SW75 (peptide sequence: YSVEQLK, peptide start residue: 1322)” as the target, how does the log2 fold change read?
A: The log2 fold change was 0.265.

Q: How did the log2 fold change turn out when “UniProt Q5XG71 (peptide sequence: KPAAPVPDAR, peptide start residue: 2043)” was run?
A: The log2 fold change was -0.264.

Q: For “UniProt Q60960 (peptide sequence: REEEGLQLR, peptide start residue: 28)”, which log2 fold change is on record?
A: Its log2 fold change is -0.492.

Q: For “UniProt Q5H8C4 (peptide sequence: FFNEDGVIRPYR, peptide start residue: 3033)”, which log2 fold change is on record?
A: The log2 fold change was 0.208.

Q: Which log2 fold change does the source give for “UniProt Q60969 (peptide sequence: SLAVHSGTTGSVKR, peptide start residue: 191)” here?
A: The log2 fold change was -0.0826.

Q: For “UniProt Q5PRF0 (peptide sequence: YSSVFKR, peptide start residue: 1984)”, which log2 fold change is on record?
A: Its log2 fold change is -0.343.

Q: For “UniProt Q60775 (peptide sequence: AANPKDPVEVGQPSEVLR, peptide start residue: 352)”, which log2 fold change is on record?
A: Its log2 fold change is 0.0895.

Q: Which log2 fold change does the source give for “UniProt Q5SUC9 (peptide sequence: LVGLTGTKEEIDGVAR, peptide start residue: 207)” here?
A: The log2 fold change was -0.309.

Q: Which log2 fold change does the source give for “UniProt Q60668 (peptide sequence: MFIGGLSWDTTKK, peptide start residue: 99)” here?
A: Its log2 fold change is 0.184.

Q: How did the log2 fold change turn out when “UniProt Q61152 (peptide sequence: AQRPVAHTEDAQGTTALR, peptide start residue: 388)” was run?
A: The log2 fold change was -0.216.

Q: Which log2 fold change does the source give for “UniProt Q60865 (peptide sequence: SSQPYYNSR, peptide start residue: 598)” here?
A: Its log2 fold change is 0.205.

Q: How did the log2 fold change turn out when “UniProt Q5DU57 (peptide sequence: IFFLFDHQLVSCKK, peptide start residue: 479)” was run?
A: Its log2 fold change is -0.27.

Q: Which log2 fold change does the source give for “UniProt Q61187 (peptide sequence: ELVNLTGTIPVR, peptide start residue: 51)” here?
A: Its log2 fold change is -0.907.

Q: With “UniProt Q60929 (peptide sequence: GDFHSPIVLGRPPNTEDR, peptide start residue: 466)” as the target, how does the log2 fold change read?
A: Its log2 fold change is 0.15.

Q: For “UniProt Q5SSW2 (peptide sequence: NFDDAFLPVLKPHLER, peptide start residue: 1351)”, which log2 fold change is on record?
A: The log2 fold change was 0.903.

Q: “UniProt Q5ND34 (peptide sequence: DREEEEEPLTEQTEGK, peptide start residue: 1194)” was tested. Which log2 fold change did it give?
A: The log2 fold change was -0.861.

Q: Which log2 fold change does the source give for “UniProt Q5SZA1 (peptide sequence: EKEHITSSVAQQSSSPR, peptide start residue: 245)” here?
A: Its log2 fold change is 0.084.

Q: With “UniProt Q61205 (peptide sequence: WMSLHHR, peptide start residue: 24)” as the target, how does the log2 fold change read?
A: The log2 fold change was -0.203.

Q: “UniProt Q60953 (peptide sequence: HFLSFLTTMHRPILACSR, peptide start residue: 670)” was tested. Which log2 fold change did it give?
A: The log2 fold change was 0.317.

Q: With “UniProt Q60750 (peptide sequence: LQPDTTYIVR, peptide start residue: 507)” as the target, how does the log2 fold change read?
A: Its log2 fold change is 0.161.

Q: With “UniProt Q60930 (peptide sequence: YQLDPTASISAK, peptide start residue: 237)” as the target, how does the log2 fold change read?
A: The log2 fold change was -0.141.

Q: “UniProt Q61189 (peptide sequence: GLGTGTLYIAESR, peptide start residue: 31)” was tested. Which log2 fold change did it give?
A: The log2 fold change was -0.72.

Q: “UniProt Q61103 (peptide sequence: DKPYACDICGK, peptide start residue: 206)” was tested. Which log2 fold change did it give?
A: The log2 fold change was 0.466.

Q: Which log2 fold change does the source give for “UniProt Q60778 (peptide sequence: TPLGSALLRPNPILAR, peptide start residue: 276)” here?
A: The log2 fold change was -0.091.

Q: For “UniProt Q60700 (peptide sequence: GATGGAR, peptide start residue: 657)”, which log2 fold change is on record?
A: Its log2 fold change is 0.0265.

Q: How did the log2 fold change turn out when “UniProt Q5SS80 (peptide sequence: GRLDFTR, peptide start residue: 176)” was run?
A: Its log2 fold change is 0.536.

Q: “UniProt Q60974 (peptide sequence: VYHENIK, peptide start residue: 274)” was tested. Which log2 fold change did it give?
A: Its log2 fold change is -0.305.

Reference: the supplement of paper PMC12819154, “High-throughput peptide-centric local stability assay extends protein–ligand identification to membrane proteins, tissues and bacteria” (Nature Structural & Molecular Biology, 2025)
